# From the supplement of paper PMC6411743
# ± gives the standard deviation of the averaged measurements. Some of the results follow.
# Target: T1, A0A0C4DGB5|P20810-10|P20810-6|P20810-7|P20810-9|P20810-5 (UniProt P20810)
# T1 sequence (whole entry): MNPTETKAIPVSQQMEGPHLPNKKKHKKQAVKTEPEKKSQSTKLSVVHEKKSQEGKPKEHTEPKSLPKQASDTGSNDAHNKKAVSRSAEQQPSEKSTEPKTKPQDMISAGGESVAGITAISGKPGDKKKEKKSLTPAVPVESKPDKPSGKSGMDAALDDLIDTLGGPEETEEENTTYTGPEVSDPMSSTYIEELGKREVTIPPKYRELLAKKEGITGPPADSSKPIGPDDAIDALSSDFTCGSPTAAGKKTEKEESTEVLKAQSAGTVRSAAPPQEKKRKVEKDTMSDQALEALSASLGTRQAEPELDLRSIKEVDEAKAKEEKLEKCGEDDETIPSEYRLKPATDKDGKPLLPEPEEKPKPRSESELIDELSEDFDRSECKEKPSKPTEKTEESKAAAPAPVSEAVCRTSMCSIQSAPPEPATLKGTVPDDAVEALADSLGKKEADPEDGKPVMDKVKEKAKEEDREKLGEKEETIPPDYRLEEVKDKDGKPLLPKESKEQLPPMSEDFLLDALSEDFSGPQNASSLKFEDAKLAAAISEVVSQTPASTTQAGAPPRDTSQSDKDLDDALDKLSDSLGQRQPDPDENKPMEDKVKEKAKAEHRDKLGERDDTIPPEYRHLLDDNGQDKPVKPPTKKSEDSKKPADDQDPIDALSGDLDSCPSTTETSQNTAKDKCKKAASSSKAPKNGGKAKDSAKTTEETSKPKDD
# Experiment: NP40-soluble protein abundance relative to vehicle (solubility fold change) (ratio); higher = more soluble protein in presence of GTP
# Procedure: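 Solubility proteome profiling in Jurkat crude lysate. Lysate was treated with Mg-GTP (0.1-10 mM) for 10 min at room temperature and 3 min at 37 °C, then solubilised with 0.8% NP40 and benzonase, followed by ultracentrifugation. Proteins were quantified by TMT10 LC-MS/MS; the value is the NP40-soluble abundance relative to the NP40-processed vehicle, from 3 independent experiments.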
smiles,measurement,setting,value
Nc1nc2c(ncn2[C@@H]2O[C@H](COP(=O)(O)OP(=O)(O)OP(=O)(O)O)[C@@H](O)[C@H]2O)c(=O)[nH]1 [guanosine triphosphate],NP40-soluble protein abundance,concentration: 0.1mM,0.952 ± 0.07
same,NP40-soluble protein abundance,concentration: 0.5mM,0.92 ± 0.09
same,NP40-soluble protein abundance,concentration: 1mM,1.02 ± 0.1
same,NP40-soluble protein abundance,concentration: 2mM,0.943 ± 0.14
same,NP40-soluble protein abundance,concentration: 4mM,0.91 ± 0.11
same,NP40-soluble protein abundance,concentration: 6mM,0.95 ± 0.12
same,NP40-soluble protein abundance,concentration: 8mM,0.954 ± 0.022
same,NP40-soluble protein abundance,concentration: 10mM,1 ± 0.081
